Data: the supplement of paper PMC7666118
The list shows a part of the results.

Protein sequences, listed by entry. Tags and fused reporters are not part of them. Lines headed by an entry give the natural chain unless they say otherwise; changes in a name come on top.
UniProt P53680: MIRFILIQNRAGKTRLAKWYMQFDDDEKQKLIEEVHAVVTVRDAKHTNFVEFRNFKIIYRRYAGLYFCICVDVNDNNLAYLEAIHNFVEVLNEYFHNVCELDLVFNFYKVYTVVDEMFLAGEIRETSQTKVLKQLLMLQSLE
UniProt Q5T9A4: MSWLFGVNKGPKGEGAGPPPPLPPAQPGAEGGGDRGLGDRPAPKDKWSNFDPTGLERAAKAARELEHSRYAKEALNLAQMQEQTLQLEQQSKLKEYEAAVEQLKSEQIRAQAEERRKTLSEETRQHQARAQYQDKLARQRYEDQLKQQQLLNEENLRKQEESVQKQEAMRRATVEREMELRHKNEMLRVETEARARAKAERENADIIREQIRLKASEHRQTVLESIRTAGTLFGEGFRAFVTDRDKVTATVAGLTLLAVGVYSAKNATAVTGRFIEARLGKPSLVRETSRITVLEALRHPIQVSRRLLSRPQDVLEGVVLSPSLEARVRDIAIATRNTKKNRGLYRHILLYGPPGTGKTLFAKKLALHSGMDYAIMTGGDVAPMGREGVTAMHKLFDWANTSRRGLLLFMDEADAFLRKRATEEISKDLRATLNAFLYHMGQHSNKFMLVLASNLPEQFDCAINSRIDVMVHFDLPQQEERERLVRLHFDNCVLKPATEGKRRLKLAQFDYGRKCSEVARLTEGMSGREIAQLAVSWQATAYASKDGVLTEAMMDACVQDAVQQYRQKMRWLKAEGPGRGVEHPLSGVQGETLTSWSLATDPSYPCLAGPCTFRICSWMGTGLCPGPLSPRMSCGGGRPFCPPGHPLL
UniProt P48444: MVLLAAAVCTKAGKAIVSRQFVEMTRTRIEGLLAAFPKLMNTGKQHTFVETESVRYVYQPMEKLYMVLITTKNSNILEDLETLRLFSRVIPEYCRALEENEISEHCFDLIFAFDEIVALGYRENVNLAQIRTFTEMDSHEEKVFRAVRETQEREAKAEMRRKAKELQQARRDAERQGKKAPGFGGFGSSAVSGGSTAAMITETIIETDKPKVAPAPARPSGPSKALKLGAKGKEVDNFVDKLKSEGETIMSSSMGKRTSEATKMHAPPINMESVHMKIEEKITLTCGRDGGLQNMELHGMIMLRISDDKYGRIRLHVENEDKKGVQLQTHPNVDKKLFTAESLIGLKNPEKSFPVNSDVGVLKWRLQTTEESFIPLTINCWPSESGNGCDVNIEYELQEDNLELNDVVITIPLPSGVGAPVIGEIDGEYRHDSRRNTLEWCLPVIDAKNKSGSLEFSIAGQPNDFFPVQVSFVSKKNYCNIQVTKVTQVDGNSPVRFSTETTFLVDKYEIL
UniProt P31749: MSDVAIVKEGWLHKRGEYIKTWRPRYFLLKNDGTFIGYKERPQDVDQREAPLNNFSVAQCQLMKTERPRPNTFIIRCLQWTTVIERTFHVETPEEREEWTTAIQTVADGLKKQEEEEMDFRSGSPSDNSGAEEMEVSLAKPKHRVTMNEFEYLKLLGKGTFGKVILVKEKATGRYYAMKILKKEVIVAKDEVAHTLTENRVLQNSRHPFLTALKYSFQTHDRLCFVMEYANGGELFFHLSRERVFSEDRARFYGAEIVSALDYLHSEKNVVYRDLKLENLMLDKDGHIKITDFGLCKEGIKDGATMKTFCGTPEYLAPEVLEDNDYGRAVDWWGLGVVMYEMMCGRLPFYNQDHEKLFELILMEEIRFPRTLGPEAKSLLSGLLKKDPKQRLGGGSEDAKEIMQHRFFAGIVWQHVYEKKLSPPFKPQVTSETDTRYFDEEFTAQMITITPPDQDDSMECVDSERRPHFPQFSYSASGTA
UniProt P04083: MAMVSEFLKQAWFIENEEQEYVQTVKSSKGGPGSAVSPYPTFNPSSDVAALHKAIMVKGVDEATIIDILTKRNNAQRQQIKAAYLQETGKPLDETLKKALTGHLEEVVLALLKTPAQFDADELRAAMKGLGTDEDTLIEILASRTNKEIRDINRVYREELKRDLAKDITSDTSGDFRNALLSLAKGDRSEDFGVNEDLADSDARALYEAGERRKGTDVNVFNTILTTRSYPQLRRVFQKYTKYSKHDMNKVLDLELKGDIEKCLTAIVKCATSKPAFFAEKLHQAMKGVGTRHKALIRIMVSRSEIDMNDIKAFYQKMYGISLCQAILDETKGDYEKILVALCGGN
UniProt Q676U5: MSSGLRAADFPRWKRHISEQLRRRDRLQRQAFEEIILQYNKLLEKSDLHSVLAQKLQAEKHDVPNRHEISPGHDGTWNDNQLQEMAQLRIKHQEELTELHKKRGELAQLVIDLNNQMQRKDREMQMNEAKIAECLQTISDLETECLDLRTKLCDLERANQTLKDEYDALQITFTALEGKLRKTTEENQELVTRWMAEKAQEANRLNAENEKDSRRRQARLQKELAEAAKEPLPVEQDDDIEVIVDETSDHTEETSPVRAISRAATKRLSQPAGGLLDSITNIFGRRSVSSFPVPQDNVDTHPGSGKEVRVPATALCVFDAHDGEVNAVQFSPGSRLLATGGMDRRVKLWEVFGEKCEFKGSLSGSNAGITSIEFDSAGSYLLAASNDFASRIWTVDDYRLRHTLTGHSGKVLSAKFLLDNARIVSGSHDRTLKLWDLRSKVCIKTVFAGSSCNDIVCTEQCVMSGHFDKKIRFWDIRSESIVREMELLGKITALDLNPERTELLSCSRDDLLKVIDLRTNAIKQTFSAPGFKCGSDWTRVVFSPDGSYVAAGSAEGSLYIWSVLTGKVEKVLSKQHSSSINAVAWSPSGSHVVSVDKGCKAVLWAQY
UniProt Q8N2Z9: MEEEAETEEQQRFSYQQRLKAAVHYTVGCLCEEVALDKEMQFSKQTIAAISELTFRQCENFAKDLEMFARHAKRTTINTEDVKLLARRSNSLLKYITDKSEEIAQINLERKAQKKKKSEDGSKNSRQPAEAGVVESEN
UniProt P40616: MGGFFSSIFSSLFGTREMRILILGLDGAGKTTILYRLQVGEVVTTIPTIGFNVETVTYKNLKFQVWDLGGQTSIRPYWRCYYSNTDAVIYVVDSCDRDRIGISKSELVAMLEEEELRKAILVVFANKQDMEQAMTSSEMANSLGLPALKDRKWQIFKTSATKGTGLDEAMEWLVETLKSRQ
UniProt P08758: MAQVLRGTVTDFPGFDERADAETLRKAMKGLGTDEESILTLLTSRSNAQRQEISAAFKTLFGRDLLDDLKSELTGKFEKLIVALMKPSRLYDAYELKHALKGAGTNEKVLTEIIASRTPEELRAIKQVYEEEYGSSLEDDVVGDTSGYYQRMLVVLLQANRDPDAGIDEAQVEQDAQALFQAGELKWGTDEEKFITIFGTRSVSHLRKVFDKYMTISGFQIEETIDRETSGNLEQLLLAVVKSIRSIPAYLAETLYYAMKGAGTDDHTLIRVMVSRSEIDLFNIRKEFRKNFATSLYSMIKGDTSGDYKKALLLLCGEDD
UniProt Q99943: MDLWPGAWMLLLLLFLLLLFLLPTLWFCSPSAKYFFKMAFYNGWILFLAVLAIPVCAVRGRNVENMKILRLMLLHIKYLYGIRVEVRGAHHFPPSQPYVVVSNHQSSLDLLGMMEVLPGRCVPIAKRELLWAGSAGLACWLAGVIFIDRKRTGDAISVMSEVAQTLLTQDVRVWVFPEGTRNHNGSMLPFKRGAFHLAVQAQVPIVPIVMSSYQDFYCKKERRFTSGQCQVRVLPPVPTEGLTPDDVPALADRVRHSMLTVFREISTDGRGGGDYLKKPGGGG
UniProt Q8NCW5: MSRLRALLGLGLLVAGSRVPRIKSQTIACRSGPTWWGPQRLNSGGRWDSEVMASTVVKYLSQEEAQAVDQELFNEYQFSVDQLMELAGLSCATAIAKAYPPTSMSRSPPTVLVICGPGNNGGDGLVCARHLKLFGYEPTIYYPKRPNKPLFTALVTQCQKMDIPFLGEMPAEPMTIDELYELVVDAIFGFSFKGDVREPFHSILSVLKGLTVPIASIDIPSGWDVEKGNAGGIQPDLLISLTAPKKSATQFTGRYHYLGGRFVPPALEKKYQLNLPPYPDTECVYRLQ
UniProt Q9H6X2: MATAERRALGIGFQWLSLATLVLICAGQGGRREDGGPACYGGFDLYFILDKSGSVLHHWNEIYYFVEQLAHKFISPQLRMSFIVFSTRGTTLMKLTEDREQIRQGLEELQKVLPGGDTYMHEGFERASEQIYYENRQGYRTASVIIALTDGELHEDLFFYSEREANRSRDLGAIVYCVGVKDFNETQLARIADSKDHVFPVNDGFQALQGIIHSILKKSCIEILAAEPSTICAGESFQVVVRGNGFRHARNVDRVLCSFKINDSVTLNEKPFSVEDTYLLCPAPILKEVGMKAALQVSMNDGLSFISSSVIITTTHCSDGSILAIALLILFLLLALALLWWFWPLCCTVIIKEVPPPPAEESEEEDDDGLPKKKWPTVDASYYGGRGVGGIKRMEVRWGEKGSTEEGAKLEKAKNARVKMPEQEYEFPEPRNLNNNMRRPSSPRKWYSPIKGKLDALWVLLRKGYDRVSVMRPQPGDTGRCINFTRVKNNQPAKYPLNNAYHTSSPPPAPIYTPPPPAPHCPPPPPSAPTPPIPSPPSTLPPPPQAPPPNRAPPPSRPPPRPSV
UniProt Q9UJX6, whole entry: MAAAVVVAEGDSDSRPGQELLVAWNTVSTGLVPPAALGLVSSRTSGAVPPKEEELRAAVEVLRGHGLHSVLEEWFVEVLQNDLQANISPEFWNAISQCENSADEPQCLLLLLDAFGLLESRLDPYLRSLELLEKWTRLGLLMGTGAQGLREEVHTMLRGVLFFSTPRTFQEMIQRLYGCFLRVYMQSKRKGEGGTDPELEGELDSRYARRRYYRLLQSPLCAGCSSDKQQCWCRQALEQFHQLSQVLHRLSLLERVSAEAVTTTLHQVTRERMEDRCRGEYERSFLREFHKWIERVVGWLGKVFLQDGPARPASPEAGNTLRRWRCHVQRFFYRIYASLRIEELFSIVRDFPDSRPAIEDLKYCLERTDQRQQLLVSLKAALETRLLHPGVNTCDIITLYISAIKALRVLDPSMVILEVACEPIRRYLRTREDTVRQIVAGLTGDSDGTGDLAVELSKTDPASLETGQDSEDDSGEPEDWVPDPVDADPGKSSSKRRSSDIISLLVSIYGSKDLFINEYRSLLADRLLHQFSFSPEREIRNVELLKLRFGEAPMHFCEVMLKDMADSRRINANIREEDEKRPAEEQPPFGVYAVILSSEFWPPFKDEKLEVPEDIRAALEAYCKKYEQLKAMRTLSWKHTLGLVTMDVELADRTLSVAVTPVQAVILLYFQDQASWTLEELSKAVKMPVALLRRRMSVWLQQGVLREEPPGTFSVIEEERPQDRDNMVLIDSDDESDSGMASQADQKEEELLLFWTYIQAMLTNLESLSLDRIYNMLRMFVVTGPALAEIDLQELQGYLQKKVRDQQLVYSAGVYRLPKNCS
UniProt Q9NUQ2: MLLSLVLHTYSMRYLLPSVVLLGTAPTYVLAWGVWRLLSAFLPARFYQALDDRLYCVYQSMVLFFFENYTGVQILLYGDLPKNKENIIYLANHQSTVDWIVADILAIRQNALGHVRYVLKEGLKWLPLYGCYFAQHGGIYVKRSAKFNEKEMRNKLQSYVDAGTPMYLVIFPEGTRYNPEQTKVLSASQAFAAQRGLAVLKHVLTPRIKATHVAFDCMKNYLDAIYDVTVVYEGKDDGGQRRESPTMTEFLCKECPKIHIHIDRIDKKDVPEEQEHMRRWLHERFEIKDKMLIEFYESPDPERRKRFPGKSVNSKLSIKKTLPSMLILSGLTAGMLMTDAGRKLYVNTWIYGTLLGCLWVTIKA
UniProt Q01433: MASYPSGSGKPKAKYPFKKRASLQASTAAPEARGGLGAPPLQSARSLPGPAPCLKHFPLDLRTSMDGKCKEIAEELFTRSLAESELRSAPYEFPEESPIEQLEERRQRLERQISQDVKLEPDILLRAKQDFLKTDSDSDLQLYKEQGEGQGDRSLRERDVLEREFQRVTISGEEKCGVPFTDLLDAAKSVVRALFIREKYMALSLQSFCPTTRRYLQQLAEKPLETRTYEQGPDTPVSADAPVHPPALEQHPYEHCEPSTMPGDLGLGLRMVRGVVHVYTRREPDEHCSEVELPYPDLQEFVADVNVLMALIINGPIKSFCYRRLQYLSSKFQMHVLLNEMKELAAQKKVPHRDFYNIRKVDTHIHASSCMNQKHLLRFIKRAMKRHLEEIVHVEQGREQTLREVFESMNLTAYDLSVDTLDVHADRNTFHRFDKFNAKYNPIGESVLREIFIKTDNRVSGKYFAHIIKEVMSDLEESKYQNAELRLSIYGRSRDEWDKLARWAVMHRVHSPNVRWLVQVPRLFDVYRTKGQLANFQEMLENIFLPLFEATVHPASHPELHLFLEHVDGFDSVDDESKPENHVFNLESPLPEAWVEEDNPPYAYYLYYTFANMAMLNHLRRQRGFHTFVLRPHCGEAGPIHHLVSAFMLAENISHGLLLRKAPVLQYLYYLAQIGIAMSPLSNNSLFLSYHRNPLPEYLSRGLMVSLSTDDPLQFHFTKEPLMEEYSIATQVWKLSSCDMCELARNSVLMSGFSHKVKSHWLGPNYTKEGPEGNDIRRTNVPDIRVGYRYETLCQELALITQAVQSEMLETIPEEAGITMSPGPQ

These targets were tested with COc1ccc(Cn2ccc3cc(C)c(C(=O)NO)cc32)cc1 (assay: dose-dependent thermal stabilisation call (2D-TPP, DLPTP, 10% FDR) (binary (1 = stabilised)); higher = stabilised by the compound). Settings: system: HL-60 intact cells; concentration range 0.04-10 µM.
Experimental: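 2D thermal proteome profiling in intact HL-60 cells treated with BRD-3811 (0, 0.04, 0.29, 2, 10 uM) for 90 min at 37 C, then heated 3 min at one of 12 temperatures (42-63.9 C). Soluble protein was quantified by TMT10 MS. The value is the DLPTP call of the paper: dose-dependent thermal stabilisation over all temperatures at 10% FDR (F-test of a dose-response against a flat model); one experiment, one call per tested protein.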
ANKLE2 (UniProt Q86XL3) was tested, and the “dose-dependent thermal stabilisation call” value was inactive: 0. In the case of AP2S1 (UniProt P53680), the “dose-dependent thermal stabilisation call” value was inactive: 0. ANKHD1-EIF4EBP3 was tested, and the “dose-dependent thermal stabilisation call” value was inactive: 0. For APOBEC3B (UniProt Q9UH17), the “dose-dependent thermal stabilisation call” value was inactive: 0. In the case of ATAD3B (UniProt Q5T9A4), the “dose-dependent thermal stabilisation call” value was inactive: 0. ARCN1 (UniProt P48444) was tested, and the “dose-dependent thermal stabilisation call” value was inactive: 0. For AKT1 (UniProt P31749), the “dose-dependent thermal stabilisation call” value was inactive: 0. With AGPAT2 (UniProt O15120) the “dose-dependent thermal stabilisation call” value was inactive: 0. ANXA1 (UniProt P04083) was tested, and the “dose-dependent thermal stabilisation call” value was inactive: 0. For ATG16L1 (UniProt Q676U5), the “dose-dependent thermal stabilisation call” value was inactive: 0. For AGTPBP1 (UniProt Q9UPW5), the “dose-dependent thermal stabilisation call” value was inactive: 0. For ANO6 (UniProt Q4KMQ2), the “dose-dependent thermal stabilisation call” value was inactive: 0. For AKAP9 (UniProt Q99996), the “dose-dependent thermal stabilisation call” value was inactive: 0. In the case of APITD1 (UniProt Q8N2Z9), the “dose-dependent thermal stabilisation call” value was inactive: 0. For ARL1 (UniProt P40616), the “dose-dependent thermal stabilisation call” value was inactive: 0. ANXA5 (UniProt P08758) was tested, and the “dose-dependent thermal stabilisation call” value was inactive: 0. AGA (UniProt P20933) was tested, and the “dose-dependent thermal stabilisation call” value was inactive: 0. With ANKRD17 (UniProt O75179) the “dose-dependent thermal stabilisation call” value was inactive: 0. AGPAT1 (UniProt Q99943) was tested, and the “dose-dependent thermal stabilisation call” value was inactive: 0. ALG14 (UniProt Q96F25) was tested, and the “dose-dependent thermal stabilisation call” value was inactive: 0. For APOA1BP (UniProt Q8NCW5), the “dose-dependent thermal stabilisation call” value was inactive: 0. ATF2 (UniProt P15336) was tested, and the “dose-dependent thermal stabilisation call” value was inactive: 0. In the case of ANTXR1 (UniProt Q9H6X2), the “dose-dependent thermal stabilisation call” value was inactive: 0. With ANAPC2 (UniProt Q9UJX6) the “dose-dependent thermal stabilisation call” value was inactive: 0. AGPAT5 (UniProt Q9NUQ2) was tested, and the “dose-dependent thermal stabilisation call” value was inactive: 0. For ARL3 (UniProt P36405), the “dose-dependent thermal stabilisation call” value was inactive: 0. AMPD2 (UniProt Q01433) was tested, and the “dose-dependent thermal stabilisation call” value was inactive: 0.
